Values from PubChem BioAssay AID652259 (Drosophila RNAi Screening Center, 2013).

Assay: 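Genome-wide hunt for genes that control Wingless pathway activity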 (primary screen)
Cell system: Drosophila clone 8 imaginal disc epithelial cells
Knock-down reagent: long dsRNA against Drosophila genes
Treatment: pathway stimulated by co-transfected Wingless expression plasmid
Measurement: 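Dual luciferase reads per well after Wingless plasmid stimulation: reporter firefly light and Renilla control light; activity is firefly divided by Renilla, a ratio not deposited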
Direction: firefly reporter light: higher = more Wg reporter light, before normalisation; Renilla control light: higher = more transfected or surviving cells
Hit rule: 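a knock-down is a candidate when at least two out of four statistical tests show it departing from its plate mean; one test alone signals a weak candidate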
Meaning of the calls: active = candidate regulator (raises or lowers reporter); inactive = not a candidate
The screen tested about 22,000 reagents; this is an unselected part of those with a known target gene and a result. In the full data, 233 (1.1%) are marked active. 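Light values are raw, unnormalised plate reads; the ratio scores behind the reporter calls were not deposited.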 Names joined by + are all predicted targets of the reagent. Not stated in the record: the amount of reagent, the time to read-out, the dose of the treatment.

gene | DRSC id | firefly reporter light, replicate 1 | firefly reporter light, replicate 2 | Renilla control light, replicate 1 | Renilla control light, replicate 2 | call
CG15914 | DRSC19739 | 24450 | – | 8977 | – | inactive
Tollo | DRSC11305 | 6377 | – | 2947 | – | inactive
disco-r (disco-related) | DRSC20173 | 27074 | – | 10883 | – | inactive
disco-r (disco-related) | DRSC20174 | 25501 | – | 11553 | – | inactive
botv | DRSC05949 | 18422 | – | 5126 | – | inactive
CG3625 | DRSC00008 | 23433 | – | 14417 | – | inactive
CG3625 | DRSC00621 | 8257 | – | 3588 | – | inactive
CG5639 | DRSC15851 | 5360 | – | 2736 | – | inactive
Exn (Ephexin) | DRSC09673 | 3451 | – | 1735 | – | inactive
Exn (Ephexin) | DRSC10077 | 8928 | – | 2969 | – | inactive
Nlg2 (Neuroligin 2) | DRSC00957 | 18488 | – | 6944 | – | inactive
Nlg2 (Neuroligin 2) | DRSC03578 | 2896 | 8464 | 992 | 1139 | inactive
CG12446 | DRSC20618 | 17349 | – | 8809 | – | inactive
CG7218 | DRSC16216 | 2133 | 5203 | 1096 | 1779 | inactive
tor (torso) | DRSC07707 | 3417 | 8506 | 1048 | 3285 | inactive
CG6696 | DRSC20004 | 13303 | – | 7264 | – | inactive
CG30428 | DRSC04041 | 19082 | – | 7616 | – | inactive
CG46441 | DRSC15561 | 3571 | 10778 | 1836 | 2925 | inactive

As entered above.
For “firefly reporter light, replicate 1”, CG6696 [DRSC20004] shows 13303
Entry of tor (torso) [DRSC07707] under “call”: inactive
Tollo [DRSC11305], firefly reporter light, replicate 1 → 6377
Entry for CG46441 [DRSC15561] in “Renilla control light, replicate 2”: 2925
Under “Renilla control light, replicate 1”, disco-r (disco-related) [DRSC20173] is entered as 10883

Next results follow.
gene | DRSC id | firefly reporter light, replicate 1 | firefly reporter light, replicate 2 | Renilla control light, replicate 1 | Renilla control light, replicate 2 | call
CG17777 | DRSC18137 | 21856 | – | 15707 | – | inactive
CanB (Calcineurin B) | DRSC18449 | 21603 | – | 12592 | – | inactive
CG14568 | DRSC11729 | 25072 | – | 7638 | – | inactive
PolI (DNA polymerase iota) | DRSC16267 | 17153 | – | 4055 | – | inactive
HIP + HIP-R | DRSC18245 | 3812 | 9516 | 1424 | 3385 | inactive
E(spl)m8-HLH (Enhancer of split m8, helix-loop-helix) | DRSC16654 | 27185 | – | 19712 | – | inactive
CG31954 | DRSC00580 | 10727 | – | 4912 | – | inactive
CG5986 | DRSC15931 | 3913 | 6546 | 1274 | 2061 | inactive
Rbp (RIM-binding protein) | DRSC15724 | 19796 | – | 784 | – | inactive
Rbp (RIM-binding protein) | DRSC15726 | 12451 | – | 4109 | – | inactive
CG1603 | DRSC06602 | 12141 | – | 3709 | – | inactive
Camp (Cathelicidin-like antimicrobial protein) | DRSC07004 | 10556 | – | 3506 | – | inactive
ck (crinkled) | DRSC03509 | 7691 | – | 1062 | – | inactive
IleRS-m (Isoleucyl-tRNA synthetase, mitochondrial) | DRSC10506 | 7043 | – | 2762 | – | inactive
CG17168 | DRSC20904 | 14593 | – | 8620 | – | inactive
Acbp5 (Acyl-CoA binding protein 5) | DRSC10548 | 2000 | 11256 | 1025 | 3904 | inactive
GstO1 (Glutathione S transferase O1) | DRSC10688 | 1786 | 4389 | 1155 | 2753 | inactive
nrv2 (nervana 2) | DRSC00948 | 16178 | – | 6832 | – | inactive
nrv2 (nervana 2) | DRSC03383 | 11325 | – | 4277 | – | inactive
Blm (Bloom syndrome helicase) | DRSC16911 | 6877 | – | 3491 | – | inactive
CG31463 | DRSC14346 | 16920 | – | 4608 | – | inactive
CG15412 | DRSC00427 | 1880 | 4768 | 988 | 995 | inactive
Rim2 (Replication in mitochondria 2) | DRSC00073 | 25718 | – | 12200 | – | inactive
Rim2 (Replication in mitochondria 2) | DRSC00520 | 11313 | – | 4860 | – | inactive
Rim2 (Replication in mitochondria 2) | DRSC22699 | 5.12e5 | 5.75e5 | 1.27e5 | 1.19e5 | inactive
Obp56a (Odorant-binding protein 56a) | DRSC06085 | 6432 | – | 2272 | – | inactive
ovo | DRSC18050 | 2386 | 5485 | 873 | 1288 | inactive
ovo | DRSC18812 | 29716 | – | 12566 | – | inactive
CG42694 | DRSC03955 | 15656 | – | 8290 | – | inactive
RhoGAPp190 (Rho GTPase activating protein p190) | DRSC20097 | 31303 | – | 12176 | – | inactive
RhoGAPp190 (Rho GTPase activating protein p190) | DRSC20099 | 3543 | 6154 | 699 | 2419 | inactive
